We go through 11 molecules from doi:10.1101/2023.11.29.569073.

The chains behind the UniProt entries cited, without tags or fusion partners.
UniProt Q9FIJ0: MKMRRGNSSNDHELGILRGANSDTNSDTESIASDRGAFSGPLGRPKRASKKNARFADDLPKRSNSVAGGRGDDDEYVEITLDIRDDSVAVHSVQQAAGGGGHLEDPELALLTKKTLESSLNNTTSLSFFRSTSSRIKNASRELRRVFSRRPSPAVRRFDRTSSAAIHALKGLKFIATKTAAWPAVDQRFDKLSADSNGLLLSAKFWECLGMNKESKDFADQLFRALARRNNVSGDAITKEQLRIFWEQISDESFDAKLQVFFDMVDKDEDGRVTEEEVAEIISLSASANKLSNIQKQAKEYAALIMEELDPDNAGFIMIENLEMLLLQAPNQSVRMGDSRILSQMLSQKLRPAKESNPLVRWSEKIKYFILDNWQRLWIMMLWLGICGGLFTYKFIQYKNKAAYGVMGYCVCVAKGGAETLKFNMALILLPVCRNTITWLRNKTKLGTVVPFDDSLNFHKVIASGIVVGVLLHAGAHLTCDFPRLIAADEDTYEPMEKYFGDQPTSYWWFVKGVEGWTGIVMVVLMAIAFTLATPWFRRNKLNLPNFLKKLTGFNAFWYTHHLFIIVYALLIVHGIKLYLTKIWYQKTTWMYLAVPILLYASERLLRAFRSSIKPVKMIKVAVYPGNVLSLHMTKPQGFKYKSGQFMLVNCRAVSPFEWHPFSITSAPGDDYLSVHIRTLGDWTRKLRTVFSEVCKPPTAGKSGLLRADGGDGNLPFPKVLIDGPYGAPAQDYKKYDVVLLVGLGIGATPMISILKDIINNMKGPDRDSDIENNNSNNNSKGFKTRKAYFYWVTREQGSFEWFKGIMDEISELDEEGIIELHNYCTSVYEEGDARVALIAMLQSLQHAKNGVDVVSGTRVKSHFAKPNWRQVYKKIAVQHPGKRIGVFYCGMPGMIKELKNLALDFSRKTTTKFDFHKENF

No constants are given. Whether binding was seen depends on the method and setting. In cells and extracts the contact can be indirect. Here binding means that the protein was enriched with, or labelled near, the bait; the list need not be complete. Where a sequence is shown, tags or fusion partners need not be part of it.

This assay addresses T1, CPK28-YFP (calcium-dependent protein kinase CPK28 C-terminally tagged with yellow fluorescent protein) (Arabidopsis thaliana) (UniProt Q9FKW4).
T1 sequence: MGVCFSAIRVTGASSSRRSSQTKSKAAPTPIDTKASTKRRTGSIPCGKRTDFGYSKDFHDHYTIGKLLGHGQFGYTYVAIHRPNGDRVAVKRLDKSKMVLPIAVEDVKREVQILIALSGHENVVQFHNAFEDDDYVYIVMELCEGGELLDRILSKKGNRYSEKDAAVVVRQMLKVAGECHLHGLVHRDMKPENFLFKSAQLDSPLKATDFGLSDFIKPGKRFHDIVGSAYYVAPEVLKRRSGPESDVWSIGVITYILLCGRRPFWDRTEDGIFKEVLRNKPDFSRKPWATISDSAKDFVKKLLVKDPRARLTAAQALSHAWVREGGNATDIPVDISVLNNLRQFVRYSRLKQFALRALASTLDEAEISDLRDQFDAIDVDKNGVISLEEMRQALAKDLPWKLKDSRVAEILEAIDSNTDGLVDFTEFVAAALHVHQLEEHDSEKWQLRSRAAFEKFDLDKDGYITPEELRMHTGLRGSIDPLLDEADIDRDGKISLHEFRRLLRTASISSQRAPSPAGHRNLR
Kind of assay: affinity purification with mass spectrometry.

Turning to “BRASSINOSTEROID … KINASE 1 (BSK1) (from UniProt Q944A7 1-512) (enzyme)”, the binding entry was “binds”.
HERCULES RECEPTOR KINASE 4 (HERK4): the binding result is recorded as “binds”.
The result for MAZZA (MAZ/CARK5) (enzyme) reads “binds”.
Next, MEDOS 1 (MDS1) (receptor): “binds”; “MIXED LINEAGE KINASE/RAF-RELATED KINASE 1 (MRK1), endogenous (enzyme)”: “binds”.
Next, “NADPH oxidase RESPIRATORY OXIDASE HOMOLOG D (RBOHD) (from UniProt Q9FIJ0 1-921) (enzyme)”: “binds”; “NEMATODE-INDUCED LRR-RLK 2 (NILR2) (from UniProt F4HRH4) (receptor)”: “binds”; calmodulin: “binds”.

B1: CYTOSOLIC ABA RECEPTOR KINASE 7 (CARK7) (enzyme, UniProt Q8H1G6 1-361)
chain: MRKWICCTCQIEDSNEEQQLKSSQQQSDANHKNSKPAPVAKHEVKKEALPIEVPPLSLDEVKEKTENFGSKALIGEGSYGRVYYATLNDGVAVALKKLDVAPEAETDTEFLSQVSMVSRLKHENLIQLLGFCVDGNLRVLAYEFATMGSLHDILHGRKGVQGAQPGPTLDWITRVKIAVEAARGLEYLHEKSQPPVIHRDIRSSNVLLFEDYKAKIADFNLSNQAPDNAARLHSTRVLGTFGYHAPEYAMTGQLTQKSDVYSFGVVLLELLTGRKPVDHTMPRGQQSLVTWATPRLSEDKVKQCIDPKLKADYPPKAVAKLAAVAALCVQYEAEFRPNMSIVVKALQPLLKPPAAAPAPES
For B1, the binding result is “binds”.

B2: WAK2 (receptor, UniProt Q9LMP1 24-732)
chain: QPRKECQTRCGNVAVEYPFGTSPGCYYPGDESFNLTCNEQEKLFFGNMPVINMSLSGQLRVRLVRSRVCYDSQGKQTDYIAQRTTLGNFTLSELNRFTVVGCNSYAFLRTSGVEKYSTGCISICDSATTKNGSCSGEGCCQIPVPRGYSFVRVKPHSFHNHPTVHLFNPCTYAFLVEDGMFDFHALEDLNNLRNVTTFPVVLDWSIGDKTCKQVEYRGVCGGNSTCFDSTGGTGYNCKCLEGFEGNPYLPNGCQDINECISSRHNCSEHSTCENTKGSFNCNCPSGYRKDSLNSCTRKVRPEYFRWTQIFLGTTIGFSVIMLGISCLQQKIKHRKNTELRQKFFEQNGGGMLIQRVSGAGPSNVDVKIFTEKGMKEATNGYHESRILGQGGQGTVYKGILPDNSIVAIKKARLGNRSQVEQFINEVLVLSQINHRNVVKVLGCCLETEVPLLVYEFINSGTLFDHLHGSLYDSSLTWEHRLRIATEVAGSLAYLHSSASIPIIHRDIKTANILLDKNLTAKVADFGASRLIPMDKEQLTTIVQGTLGYLDPEYYNTGLLNEKSDVYSFGVVLMELLSGQKALCFERPHCPKNLVSCFASATKNNRFHEIIDGQVMNEDNQREIQEAARIAAECTRLMGEERPRMKEVAAELEALRVKTTKYKWSDQYRETGEIEHLLGVQILSAQGETSSSIGYDSIRNVTTLDIEAGR
B2: the binding result is listed as “binds”.

B3: PROLINE-RICH EXTENSIN-LIKE KINASE 1 (PERK1) (enzyme, UniProt Q9LV48 1-652)
chain: MSTAPSPGTTPSPSPPSPPTNSTTTTPPPAASSPPPTTTPSSPPPSPSTNSTSPPPSSPLPPSLPPPSPPGSLTPPLPQPSPSAPITPSPPSPTTPSNPRSPPSPNQGPPNTPSGSTPRTPSNTKPSPPSDSSDGLSTGVVVGIAIGGVAILVILTLICLLCKKKRRRRHDDEAAYYVPPPPPSGPKAGGPYGGQQQYWQQQNASRPSDNHVVTSLPPPKPPSPPRKPPPPPPPPAFMSSSGGSDYSDLPVLPPPSPGLVLGFSKSTFTYEELSRATNGFSEANLLGQGGFGYVHKGILPSGKEVAVKQLKAGSGQGEREFQAEVEIISRVHHRHLVSLIGYCMAGVQRLLVYEFVPNNNLEFHLHGKGRPTMEWSTRLKIALGSAKGLSYLHEDCNPKIIHRDIKASNILIDFKFEAKVADFGLAKIASDTNTHVSTRVMGTFGYLAPEYAASGKLTEKSDVFSFGVVLLELITGRRPVDANNVYVDDSLVDWARPLLNRASEEGDFEGLADSKMGNEYDREEMARMVACAAACVRHSARRRPRMSQIVRALEGNVSLSDLNEGMRPGHSNVYSSYGGSTDYDTSQYNDDMIKFRKMALGTQEYGTTGEYSNPTSDYGLYPSGSSSEGQATREMEMGKIKKTGQGYSGPSL
Consider B3, for which the binding result is “binds”.
